# Measurements as given in US8258311B2, “Human protein tyrosine phosphatase inhibitors and methods of use” (Aerpio Therapeutics Inc., priority 2006, dated 2012).
# Test system: hindlimb ischemia
# Assay: Rat hindlimb model of collateral development: blood flow during treadmill exercise (microspheres)
# Assay type: in vivo
# Conditions: mean ± SE
# Source text: The Rat hindlimb model is used to evaluate angiogenic properties of novel HPTPb inhibitors. Specifically to determine if there is enhanced blood flow to the collateral dependent region of the leg post ischemia when the animal is in an exercise challenged state. […] An initial surgery is done to create hindlimb ischemia and implant osmotic pumps essentially as previously described with minor alterations. […] Following induction, animals are transferred to a surgical mat and anesthesia is continued via a non-rebreathing circuit. A warming lamp is positioned above the rat and a rectal probe is placed to monitor the animal's body temperature. The groin areas bilaterally are clipped and prepared with alternating Betadine and alcohol scrubs (3×) and a sterile drape is placed over the rat. The left femoral artery is exposed through a skin incision and subsequently ligated in two positions 1 cm apart; distal to the inguinal ligament and proximal to the femoral circumflex artery. The skin is closed using either skin staples or Vetbond. The same procedure is repeated on the right side. […] Prior to implantation, osmotic pumps are filled with VEGF165 solution at a dose of 15 μg/kg/day, and primed overnight inside sterile saline beakers in a water bath (37° C.). […] Following euthanasia, tissues are removed, trimmed, weighed, recorded, and placed in marked tubes for processing. […]
smiles,measurement,setting,value
CCc1csc([C@H](Cc2ccc(NS(=O)(=O)O)cc2)NC(=O)[C@H](Cc2ccccc2)NC(=O)OC(C)(C)C)n1 [4-{(S)-2-[(S)-2-(tert-Butoxycarbonylamino)-3-phenylpropanamido]-2-(4-ethylthiazol-2-yl)ethyl}phenylsulfamic acid],Blood Flow During exercise Kidney,continuous SubQ infusion High 15 mg/kg/d,319 ± 37.9 ml/min/100 g
same,Blood Flow During exercise Kidney,continuous SubQ infusion Low 5 mg/kg/d,318 ± 30.1 ml/min/100 g
